Values from PubChem BioAssay AID504784 (Drosophila RNAi Screening Center, 2011)
Test: 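Genome-wide knock-down for genes giving too much or too little stored lipid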 (primary screen). System: Drosophila Kc167 embryonic cells. Reagents: long dsRNA against Drosophila genes, about 250 ng dsRNA per well. Time to read-out: 4 days. Challenge: cells fed 400 µM oleic acid bound to BSA. Measurement: 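Cells imaged and segmented; ratio of lipid droplet area to nuclear area, log-transformed, then normalised as a B-score over the screen; higher means more stored lipid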. Scale: droplet/nuclear area B-score: higher = more stored lipid (overstorage).
The screen tested about 17,000 reagents; this is an unselected part of those that have a named target and a result. 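Each column is one replicate's B-score; the combined score over replicates was not deposited, so single values may mislead.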 Names joined by + are all predicted targets of the reagent.

no.	Target gene	dsRNA	droplet/nuclear area B-score, replicate 1	droplet/nuclear area B-score, replicate 2	droplet/nuclear area B-score, replicate 3
1	CG3942 (GeneID 41489)	DRSC15525	-1.13	-0.0654	
2	Hsp60C (GeneID 33796)	DRSC03036	-0.511	0.686	
3	eater (GeneID 43262)	DRSC15969	-0.403	0.104	2.33
4	eater (GeneID 43262)	DRSC22254	0.0246	-0.769	
5	CG12206 (GeneID 31316)	DRSC17828	2.01	0.617	
6	CG8289 (GeneID 32741)	DRSC20101	-0.432	0.00766	
7	Osi12 (GeneID 40766)	DRSC12177	0.0706	0.0633	
8	BomBc2 (GeneID 37102)	DRSC06502	-0.683	-0.544	
9	Adsl (GeneID 42051)	DRSC15500	-0.3	0.302	
10	S1P (GeneID 40399)	DRSC11810	0.234	-0.342	
11	AMPKalpha (GeneID 43904)	DRSC18714	0.48		
12	uno (GeneID 35778)	DRSC07244	0.436	-0.361	
13	enok (GeneID 37859)	DRSC04096	0.978	-0.0389	
14	FER (GeneID 41118)	DRSC12735	-2.25	0.279	
15	FER (GeneID 41118)	DRSC16673	-0.014	0.973	
16	NP15.6 (GeneID 42282)	DRSC16756	1.19	-0.839	
17	Dredd (GeneID 31011)	DRSC18461	0.533		
18	Gagr (GeneID 39824)	DRSC10441	0.00509	0.728	0.013
19	Ugt37A2 (GeneID 41573)	DRSC15861	-0.444	2.05	
20	svp (GeneID 41491)	DRSC12899	0.547	-0.41	
21	svp (GeneID 41491)	DRSC15311	0.00961	0.263	
22	svp (GeneID 41491)	DRSC17075	-0.196	-0.591	2.48
23	robo2 (GeneID 44522)	DRSC00377	-1.47	0.503	
24	robo2 (GeneID 44522)	DRSC00378	0.0113	-0.926	
25	robo2 (GeneID 44522)	DRSC00686	2.27	-0.0487	
26	robo2 (GeneID 44522)	DRSC00691	-1.64	-1.77	
27	Aldh-III (GeneID 45398)	DRSC06047	-0.0518	1.34	
28	topi (GeneID 41199)	DRSC16431	-0.425	0.744	
29	CG9876 (GeneID 37668)	DRSC04586	-0.33	0.977	
30	Sbp2 (GeneID 38934)	DRSC10766	0.0582	-0.595	
31	Marc (GeneID 36014)	DRSC06614	0.83	-1.09	
32	Diap1 (GeneID 39753)	DRSC11404	-4.44	-2.89	0.0868
33	Drs (GeneID 38419)	DRSC08657	-0.667	-0.331	
34	CG31088 (GeneID 318590)	DRSC13123	0.113	0.0441	
35	T3dh + pgc	DRSC04659	-0.0196	1.19	
36	M1BP (GeneID 41042)	DRSC16566	-2.48	1.72	
37	pyd3 (GeneID 40916)	DRSC15459	-3.61	-0.92	3.91
38	pyd3 (GeneID 40916)	DRSC21640	0.676	2.15	
39	slx1 (GeneID 40578)	DRSC12290	-0.8	-1.33	
40	knk (GeneID 47137)	DRSC15993	1.22	0.63	
41	Dhc64C (GeneID 38580)	DRSC08656	-0.297	0.47	
42	slp2 (GeneID 33608)	DRSC00836	-0.215	1.18	
43	Osi2 (GeneID 40756)	DRSC12174	1.84	1.34	
44	CG11110 (GeneID 37337)	DRSC06037	1.56	-0.238	
45	CG10845 (GeneID 42978)	DRSC14272	1.06	0.0813	
46	Tsr1 (GeneID 40360)	DRSC11821	-0.00509	-1.58	1.07
47	mib2 (GeneID 35170)	DRSC02623	1.35	0.213	
48	CG14062 (GeneID 43389)	DRSC14725	0.211	0.458	
49	CG8501 (GeneID 36347)	DRSC07198	0.219	1.1	
50	CG2656 (GeneID 40857)	DRSC12584	-0.579	0.0147	
51	CG10700 (GeneID 35183)	DRSC02096	-0.0212	0.333	
52	frtz (GeneID 33349)	DRSC00512	1.99	-0.0282	
53	qin (GeneID 42236)	DRSC14782	-2.07	-2.44	
54	Dhod (GeneID 41022)	DRSC16647	1.75	-0.0166	
55	CSN7 (GeneID 35816)	DRSC06807	-0.398	-1.82	
56	CSN7 (GeneID 35816)	DRSC06808	-0.766	-2.18	
57	CG3038 (GeneID 30970)	DRSC18618	1.22	-1.7	
58	CG13121 (retired record) (GeneID 34298)	DRSC02217	-0.556	0.129	
59	CG2652 (GeneID 31250)	DRSC18501	0.0406		2.79
60	CG2652 (GeneID 31250)	DRSC22576	0.0484	0.4	
61	Cadps (GeneID 49968)	DRSC22200	0.338	-0.452	
62	CG13220 (GeneID 36200)	DRSC06342	0.476	-0.575	
63	Os-C (GeneID 40942)	DRSC16778	-1.09	-0.367	
64	Gdi (GeneID 34264)	DRSC03330	-0.0358	-1.59	
65	CG10991 (retired record) (GeneID 40730)	DRSC12156	-0.623	-0.85	
66	conv (GeneID 36588)	DRSC07213	-0.0227	2.53	
67	Kdm3 (GeneID 41143)	DRSC16393	-0.0856	-0.648	
68	CG15803 (GeneID 42206)	DRSC15121	-0.796	0.0764	
69	CG13847 (GeneID 42636)	DRSC14697	0.413	0.113	
70	CG13847 (GeneID 42636)	DRSC23172	0.006	-0.412	
71	CG4462 (GeneID 42376)	DRSC15583	-0.627	-1.23	
72	CG8188 (GeneID 32751)	DRSC20090	0.691	-1.16	1.26
73	CG4267 (GeneID 33405)	DRSC00647	0.0484	0.302	
74	CG9003 (GeneID 36244)	DRSC07317	-0.507	0.384	
75	cpo (GeneID 45840)	DRSC13265	0.24	-0.0932	
76	Not11 (GeneID 37839)	DRSC04204	0.0173	0.19	
77	CG17658 (GeneID 37793)	DRSC04292	-0.0102	-0.381	
78	ATPsynE (GeneID 41745)	DRSC15476	2.84	0.132	
79	abs (GeneID 40530)	DRSC12372	-0.796	-1.24	-0.668
80	CG15706 (GeneID 36799)	DRSC06577	-3.35	0.401	
81	ClC-a (GeneID 41428)	DRSC14947	-1.04	-0.226	
82	ClC-a (GeneID 41428)	DRSC14948	-1.93	-0.736	
83	ClC-a (GeneID 41428)	DRSC16142	1.33	0.453	
